Each structure is given as a SMILES string. Several values for one entry are separate records, joined by “and”; a condition that tells them apart may be missing. Identical values can stand only once. The list shows a part of the results. The main result of the screen is listed elsewhere. These columns were measured beside it and carry no call. Most of these compounds were active or inconclusive in the main read-out, so they are no random draw. Potencies come from curve fits of mixed quality, noted in brackets.

As a reminder, the AC50 is the concentration at which the activity in the assay is half-maximal.

The nature of this assay: Cell signaling CRE-BLA (Fsk stim). To be noted: CHO CRE-bla reporter (cAMP response element driving beta-lactamase), forskolin EC10, beta-lactamase ratio; measured here: 460 nm blue channel. The method, boiled down: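 Cells were plated overnight at 37 °C, exposed to compound titrations plus EC10 NKH 477 for 3 h, then given CCF4 dye for 2 h at room temperature. Blue/green (460/530 nm) ratio was converted to %Activity and AC50 values calculated.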
As to `Cc1ccc(S(=O)(=O)N2CCCC(c3nnc4n3-c3ccccc3SC4)C2)cc1` (stereo unspecified), the AC50 is 3.16 µM [rising, single point].

Consider `COc1cccc(C(c2sc3nc(C)nn3c2O)N2CCN(C(=O)c3ccco3)CC2)c1` (stereo unspecified), for which the AC50 was 7.94 µM [rising, partial curve].

In the case of `COc1ccc(OC)c(CCNC(=O)Cn2sc3nc(C)cc(C)c3c2=O)c1`, the AC50 was 25.1 µM [falling, single point].

As for `COc1ccc(-c2noc(CN3C(=O)c4ccccc4C3=O)n2)cc1`, the AC50 was 25.1 µM [rising, single point].

As to `O=C(COC(=O)c1ccc2c(c1)OCO2)NCc1ccc(Cl)cc1`, the AC50 was 5.01 µM [falling, single point].

In the case of `CCCCOC(=O)c1cc2c(cn1)[nH]c1ccccc12`, the AC50 is 25.1 µM [falling, single point].

As for `Cc1cc(/C=N/n2cnnc2)c(C)n1-c1ccc2ncccc2c1`, the AC50 was 1.26 µM [rising, partial curve].

As to `CSc1nc2ccc(NS(=O)(=O)c3ccc4c(c3)OCCO4)cc2s1`, the AC50 was 0.794 µM [falling, partial curve].

Turning to `Clc1c(CSc2nc3ccccc3o2)nc2ccccn12`, the AC50 is 3.16 µM [rising, full curve].

Consider `COc1cc(NC(=O)c2cnn3c(C)cc(C)nc23)c(OC)cc1Cl`, for which the AC50 was 2 µM [rising, full curve].

Turning to `COn1c(C)c(C(C)=O)c2c3nonc3ccc21`, the AC50 was 25.1 µM [rising, single point].

Take `COc1ccc(OC)c2[nH]c(=O)c(CCNC(=O)CC(C)C)cc12`: the AC50 is 2.51 µM [rising, full curve, poor fit].

On to `Cc1nc(SCC#N)c2c(C)c(C)sc2n1`, for which the AC50 was 2.51 µM [rising, full curve].

Consider `Cc1nc2nc(-c3cccs3)cn2nc1C`, for which the AC50 was 12.6 µM [rising, partial curve].

In the case of `CCOC(=O)CCn1nc(-c2ccc(Cl)cc2)cc1N`, the AC50 was 0.126 µM [falling, partial curve, poor fit].

On to `Cc1nc(SCCO)c2oc3ccccc3c2n1`, for which the AC50 was 10 µM [rising, partial curve].

Turning to `COc1ccc(-c2c(C#N)c(SCc3c(C)noc3C)nc3c2C(=O)CC(C)(C)C3)cc1`, the AC50 is 31.6 µM [falling, partial curve, poor fit].

`N#Cc1c(NC(=O)CSc2n[nH]c(Cc3ccccc3)n2)oc(-c2ccccc2)c1-c1ccccc1`: the AC50 is 12.6 µM [falling, partial curve].

`CC(C(=O)Nc1nccs1)N1C(=O)C2CC=CCC2C1=O` (stereo unspecified): the AC50 was 5.01 µM [falling, single point].

Consider `CC(=O)c1ccc(NC(=O)Nc2ncn(Cc3cccc(C)c3)n2)cc1`, for which the AC50 is 6.31 µM [rising, partial curve].

As to `Cn1c(=O)[nH]c(=O)c2c1nc(Br)n2CCOc1ccccc1`, the AC50 is 5.01 µM [rising, partial curve].

In the case of `CN1CC=C2C(C#N)=C(N)C(C#N)(C#N)C(CCc3ccccc3)C2C1` (stereo unspecified), the AC50 is 10 µM [rising, single point].

`Cc1cc(C)n2nc(C(=O)NCc3ccccc3)cc2n1`: the AC50 is 0.316 µM [rising, full curve, poor fit].

With `O=c1c(CCc2ccccc2)nc2cnc(N3CCOCC3)nc2n1C[C@H]1CCCO1`, the AC50 is 10 µM [rising, partial curve].

Regarding `COc1ccc(C[C@@H]2C(=O)N[C@H](C)C(=O)N(C)[C@@H]3Cc4ccc(cc4)Oc4cc(ccc4O)C[C@H](C(=O)N[C@@H](C)C(=O)N[C@H](C)C(=O)N2C)N(C)C3=O)cc1`, the AC50 is 3.98 µM [falling, partial curve].

As for `CC(C)(C)c1ccc(-c2nnc(SCCC#N)n2C2CCCC2)cc1`, the AC50 was 0.2 µM [falling, partial curve].

As for `c1ccc(COc2ccc(Oc3nc(N4CCCCC4)nc(N4CCOCC4)n3)nn2)cc1`, the AC50 is 25.1 µM [rising, single point].

`Cc1ccc(C2C3=C(CC(C)(C)CC3=O)NC3=C2C(=O)CC(C)(C)C3)o1`: the AC50 is 0.794 µM [rising, full curve].

For the compound `NC(=O)SCC(=O)Nc1ccc(Cl)c(Cl)c1`, the AC50 was 12.6 µM [falling, single point].

For `COc1ccc(CCCO[C@@H](Cn2ccnc2)c2ccc(OC)cc2)cc1`, the AC50 was 31.6 µM [falling, partial curve, poor fit].

On to `CCCc1cc(C(=O)Cc2ccc(C(=O)OCC)o2)c(O)cc1O`, for which the AC50 was 31.6 µM [falling, single point].

Take `CCn1c(Cc2ccc(OC)cc2)nnc1SCC(=O)Nc1cccc(C(=O)OC)c1`: the concentration at half-maximal activity (AC50) is 25.1 µM [rising, single point].

As for `COc1ccc(S(=O)(=O)N2CCN(CC(=O)Nc3ccc(C)c(F)c3)CC2)cc1`, the AC50 is 0.00316 µM [falling, full curve, poor fit].

`O=C(CN(CC1CCCO1)C(=O)CCC(=O)Nc1nccs1)NCc1ccc2c(c1)OCO2` (stereo unspecified): the AC50 is 5.01 µM [falling, single point].

For the compound `O=C(Nc1cccnc1)c1cc2nc(C3CC3)cc(C(F)(F)F)n2n1`, the AC50 was 12.6 µM [rising, single point].

`CCOC(=O)c1c(C)c(C(=O)NCc2ccc3c(c2)OCO3)c(C)n1C`: the AC50 is 10 µM [rising, single point].

For `COc1cc(C(=O)NCc2nnc(SCC(=O)Nc3cccc(C)c3)o2)cc(OC)c1OC`, the AC50 was 12.6 µM [rising, single point].

As to `CCNCCCNCCCNCCCNCC`, the AC50 was 31.6 µM [falling, partial curve, poor fit].

Regarding `COCCn1c(=O)c(-c2ccccc2)nc2cnc(N3CCN(C)CC3)nc21`, the AC50 was 10 µM [rising, partial curve].

As to `Clc1ccc(C(c2ccccc2Cl)C(Cl)Cl)cc1` (stereo unspecified), the AC50 was 31.6 µM [falling, single point].

Take `CN(C)c1ccc(C(=C2C=CC(=[N+](C)C)C=C2)c2ccccc2)cc1`: the half-maximal activity concentration (AC50) is 1 µM [falling, full curve] and 794 nM [rising, partial curve, poor fit].

Regarding `C/C(Cl)=C/CSc1nc2c(c(=O)[nH]c(=O)n2C)n1C(C)C`, the AC50 was 10 µM [rising, partial curve].

For `COc1ccc(-c2nc3cnccn3c2Nc2ccc3c(c2)OCO3)cc1`, the AC50 was 6.31 µM [rising, partial curve].

On to `CCCCCC1CCC(C(=O)O)CC1` (stereo unspecified), for which the AC50 is 0.2 µM [falling, full curve].

For the compound `O=c1[nH]c(CSc2nnc(COc3ccccc3)n2-c2ccccc2)nc2ccccc12`, the AC50 is 10 µM [rising, partial curve].

For `CCOC(=O)c1cc2occc2n1CCCN1C(=O)c2ccccc2C1=O`, the AC50 was 15.8 µM [rising, partial curve].

As to `CCCCn1c(SCc2cc(=O)[nH]c3ccccc23)nc2c1c(=O)n(C)c(=O)n2C`, the AC50 is 1.26 µM [rising, partial curve, poor fit].

Regarding `Cc1ccc(NC(=O)c2ccc(F)c(S(=O)(=O)N3CCOCC3)c2)cc1F`, the AC50 was 2 µM [falling, single point].

On to `Cc1cc(C)n(-c2cc(C)c(C)cc2Br)n1`, for which the AC50 was 20 µM [falling, partial curve].

Consider `Cc1ccc2oc(=O)c3cc(C(=O)NCCN4CCN(C)CC4)sc3c2c1`, for which the AC50 is 2 µM [rising, full curve].

On to `N#Cc1cccc(-c2nccc(-n3ccnc3)n2)c1`, for which the AC50 is 2.51 µM [rising, full curve].

`N#Cc1c2c(c(=S)n(-c3ccccc3)c1N)CCCC2`: the AC50 is 0.00316 µM [falling, full curve, poor fit].

For the compound `CC(C)c1ccc2oc(=O)cc(CN3CCN(c4ccccc4)CC3)c2c1`, the AC50 was 5.01 µM [rising, single point].

On to `O=C(Cn1ccc2ccccc2c1=O)NCCC(=O)Nc1cccnc1`, for which the AC50 is 12.6 µM [falling, partial curve, poor fit].

As for `c1ccc2c(c1)ncn2Cc1nnc2sc(-c3ccncc3)nn12`, the AC50 is 25.1 µM [rising, single point].

On to `CCCCn1c(SCc2cc(=O)n3ccsc3n2)nc2cc(C(=O)OC)ccc2c1=O`, for which the AC50 is 3.16 µM [rising, partial curve, poor fit].

In the case of `CCc1cc(=O)oc2cc(OCC(=O)N(CC)CC)c(Cl)cc12`, the AC50 was 10 µM [rising, partial curve].

For the compound `N#Cc1ccc(NC(=O)C2CC(c3ccc(F)cc3)=NO2)cc1` (stereo unspecified), the AC50 is 25.1 µM [rising, single point].

Take `CSc1ccc(Cl)c(C(=O)OCC(=O)NCc2ccco2)c1`: the AC50 was 15.8 µM [falling, single point].

For the compound `COc1ncc2nc(-c3cn(C)c4ccccc34)c(=O)n(C)c2n1`, the AC50 was 15.8 µM [rising, partial curve].

Regarding `COc1cccc2c(=O)n(CC(=O)NC3CCCCC3)ccc12`, the AC50 was 7.94 µM [rising, partial curve].

For the compound `CCCCCN(C(=O)NC(=O)Nc1nncs1)S(C)(=O)=O`, the AC50 is 5.01 µM [falling, single point].

As to `Cn1c(CCN2CCOCC2)nc2cc(NC(=O)COc3ccccc3)ccc21`, the AC50 is 3.16 µM [rising, partial curve].

`O=C(NCC1CCCO1)C1CCCN(S(=O)(=O)c2cccc3nsnc23)C1` (stereo unspecified): the AC50 was 10 µM [falling, partial curve].

Turning to `C=CCOc1ccc(CN(C)CC(=O)N(CC(C)C)c2c(N)n(CC(C)C)c(=O)[nH]c2=O)cc1`, the AC50 was 5.01 µM [falling, single point].

Turning to `CCCC(=O)Nc1cc(-c2nn(C)c(=O)c3ccccc23)ccc1OC`, the AC50 was 10 µM [rising, partial curve].

(Values after PubChem BioAssay AID662 (National Center for Advancing Translational Sciences (NCATS), 2007).)
